Reference: paper PMC12397908, “Cryo-EM structures of the MnmE–MnmG complex reveal large conformational changes and provide new insights into the mechanism of tRNA modification” (Nucleic Acids Research, 2025)
No constants are given. Whether binding was seen depends on the method and setting. Some results given as binding are weak or reduced against the parent protein; the word gives no strength.

Tests used:
Escherichia coli MnmG [1] = target: T1, Escherichia coli MnmG (E. coli, UniProt P0A6U3 1-629); experiment: cryo-EM structure; MnmE–MnmG complex formed with GppNHp, FAD and K+ (20 mM HEPES pH 7.5, 150 mM KCl, 5 mM MgCl2, 2 mM DTT), purified by SEC; α2β2 and α4β2 classes; both purified
T1 construct: E. coli MnmG in pET14b, preceded by an N-terminal His-tag and TEV cleavage site; domains described over residues 1-629; Homodimer (β2); also called EcMnmG; β2; source: E. coli BL21(DE3), purified (Ni-NTA IMAC, Superdex200 SEC)
T1 sequence: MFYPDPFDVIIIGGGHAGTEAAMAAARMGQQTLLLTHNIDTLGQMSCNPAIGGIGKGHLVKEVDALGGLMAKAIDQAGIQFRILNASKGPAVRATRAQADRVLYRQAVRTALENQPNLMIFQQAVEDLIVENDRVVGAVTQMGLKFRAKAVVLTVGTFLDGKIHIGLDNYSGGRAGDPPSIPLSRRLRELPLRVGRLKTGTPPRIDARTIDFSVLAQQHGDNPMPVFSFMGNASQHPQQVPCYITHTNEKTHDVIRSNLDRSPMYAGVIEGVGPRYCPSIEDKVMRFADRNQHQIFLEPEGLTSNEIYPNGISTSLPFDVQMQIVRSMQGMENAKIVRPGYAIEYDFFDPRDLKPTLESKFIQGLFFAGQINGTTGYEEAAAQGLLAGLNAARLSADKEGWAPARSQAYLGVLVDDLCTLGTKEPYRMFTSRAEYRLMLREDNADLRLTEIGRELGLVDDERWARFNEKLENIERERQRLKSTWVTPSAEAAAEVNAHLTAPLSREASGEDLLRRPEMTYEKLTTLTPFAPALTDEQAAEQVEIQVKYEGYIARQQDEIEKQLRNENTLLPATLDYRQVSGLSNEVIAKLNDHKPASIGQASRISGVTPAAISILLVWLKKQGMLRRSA

Escherichia coli MnmG [2] = target: T1, Escherichia coli MnmG; experiment: mass photometry; SEC peak fraction of the complex (100 μM MnmE + 50 μM MnmG, 1 mM GppNHp, 1 mM FAD, 150 mM KCl) measured at 100 nM on a Refeyn OneMP; both purified

B1: Escherichia coli MnmE (wild type) (enzyme, E. coli, UniProt P25522 1-454, looked up)
chain: MSDNDTIVAQATPPGRGGVGILRISGFKAREVAETVLGKLPKPRYADYLPFKDADGSVLDQGIALWFPGPNSFTGEDVLELQGHGGPVILDLLLKRILTIPGLRIARPGEFSERAFLNDKLDLAQAEAIADLIDASSEQAARSALNSLQGAFSARVNHLVEALTHLRIYVEAAIDFPDEEIDFLSDGKIEAQLNDVIADLDAVRAEARQGSLLREGMKVVIAGRPNAGKSSLLNALAGREAAIVTDIAGTTRDVLREHIHIDGMPLHIIDTAGLREASDEVERIGIERAWQEIEQADRVLFMVDGTTTDAVDPAEIWPEFIARLPAKLPITVVRNKADITGETLGMSEVNGHALIRLSARTGEGVDVLRNHLKQSMGFDTNMEGGFLARRRHLQALEQAAEHLQQGKAQLLGAWAGELLAEELRLAQQNLSEITGEFTSDDLLGRIFSSFCIGK
notes: E. coli MnmE, wild-type open reading frame in pET20b, preceded by an N-terminal His-tag and TEV cleavage site; 454 residues (K454 is the C-terminal residue); Homodimer (α2); also called EcMnmE; α2; source: E. coli BL21(DE3), purified (Ni-NTA IMAC, alkaline phosphatase treatment, second Ni-NTA, Superdex200 SEC)
Escherichia coli MnmG [1]
  binding: binds
Escherichia coli MnmG [2]
  binding: binds
